# Data: the supplement of paper PMC11732987, “Enantioselective OTUD7B fragment discovery through chemoproteomics screening and high-throughput optimisation” (Communications Chemistry, 2025)
# The list shows a part of the results. The data scatter; read single values as rough.
# Tested on: T1, QSER1 C1121
# T1 sequence (whole entry): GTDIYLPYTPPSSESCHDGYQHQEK
# Assay: log2 mean competition ratio of IA-DTB cysteine labelling (DMSO/compound) (log2 ratio); higher = stronger cysteine engagement by compound
# Conditions: 50 µM; treatment time: 4 h; cell line lysate: HEK293T
# Procedure: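 IA-DTB competitive cysteine chemoproteomics in HEK293T RIPA lysate. Lysates were treated with compound 29 or 30 at 50 or 200 µM for 4 h, then IA-DTB (500 µM, 1 h), trypsin-digested, NeutrAvidin-enriched and analysed by diaPASEF. Competition ratio = intensity DMSO / intensity compound (n=4 treated, n=64 DMSO); binding: mean log2 CR ≥ 1 and p ≤ 0.05 plus QC filters. Target is the cysteine site.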
row,SMILES,log2 mean competition ratio
1,O=C(CCl)N[C@@H]1CCCc2ccccc21,-0.216
2,O=C(CCl)N[C@H]1CCCc2ccccc21,-0.0187

# Same assay, conditions: 200 µM; treatment time: 4 h; cell line lysate: HEK293T
row,SMILES,log2 mean competition ratio
1,O=C(CCl)N[C@@H]1CCCc2ccccc21,0.496
2,O=C(CCl)N[C@H]1CCCc2ccccc21,0.366
